According to PMC7022936:

How the values were obtained:
[1] = test system: DcGliZ full-length (Dichotomomyces cejpii FS110); assay: EMSA; conditions: EMSA: Beyotime chemiluminescent kit, 5 uL of 1 uM probe + 2 uL protein (~1 mg/mL in Methods, 100 mg/mL in legend), buffer not stated, recombinant protein, protein details: C-terminal His6 (pET22b, from primers), label: biotin (EMSA)
[2] = test system: DcGliZ core (Zn2Cys6 domain) (Dichotomomyces cejpii FS110); assay: EMSA; conditions: EMSA: Beyotime chemiluminescent kit, 5 uL of 1 uM probe + 2 uL protein (~1 mg/mL in Methods, 100 mg/mL in legend), buffer not stated; recombinant protein; protein details: C-terminal His6 (pET22b, from primers); label: biotin (EMSA)

| Sequence | binding result [1] | binding result ([1]; clearest shift) | binding result [2] |
| --- | --- | --- | --- |
| TAGTCTATCACTGAACAGTTGAATGAATTTGTTTCAAGACAGCTAAAGCTCCATTCTAGCCGTACGTACTGGTAGTTCTCCGCATAGAAACATATATCTCTCTGCTTGGTCAAAGTCAGGTATCGCCGACAAGTCTTAATATCTGCAGAGTATTCGGTGACCGAAATAGGGTCGGAATATAAGCCATATATATCACTGTTCTGGAAATCAAGAAAATATAACAGTTGAATACTCACTTTTCTAACATTCCAACAATCAGTTGAGCTCGATCACA (double strand) [pM (gliM promoter)] | binds |  |  |
| TTACTTCTTGGTCTACTCCGTATTGTGAATCGAAATGAGATAGAAGTATAGTTCTACTGTACTGGTTTCTATCTGCTTAAAATAAATACAATTGTGCCTTCTATACAGATCAGTATGTAGAATGAACTGATAGACCTCCAGGAGGTTCTTCCTCCGAGCCTGCAACGCCCAAGAGGAGAACTGTGCATACGCCAGGACAGATTTTCGGCCTCCGAAAAGGACTGAGGATAGTATCTGCCATGTTTATATATAACTGAGGGAATAGACCAGGTAGATAACAGCAAAATCAACTAAACATCATC (double strand) [pN (gliN promoter)] | binds |  |  |
| GTTTCTATGTCTATATCGGAGGAGTGATCAACGGCGTCCGAAAATTCGGCCCGCGGCTGTCTTAGGGCTGGCCTGCAGGTGTAGGGTTCATTATGAAAGACTGGTAGTATTATGCTGCTATTTAGTCAAAAGCAGAAGAACAGTTTGTCTTTAGACCTTGAATAGATATCTGTCAAGACAAGAGCCAAGAAAGTCCCATCACCATGGCAGACATGACCGAACGACCTTCTGATCTCGTTGTGGACAGGCTGGTTCTCTTCG (double strand) [pG (gliG promoter)] |  | binds | binds |

The exact form of at least one protein or probe is not confirmed.
